PubChem BioAssay AID504786 – Drosophila RNAi Screening Center | 2011

Purpose: 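Fly genes required for HIF-dependent transcription when hypoxia is mimicked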 (primary screen)
System: Drosophila S2 cells with a stable HIF luciferase reporter
Knock-down reagent: long dsRNA against Drosophila genes, about 0.2 µg dsRNA per well of a 384-well plate
Timing: three days of knock-down, then 20 h of DFO before reading
Treatment: desferrioxamine (DFO) at 100 µM, an iron chelator that mimics hypoxia, for 20 h
Detection: 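HIF reporter luminescence in cells given 100 µM DFO for 20 h, using the mouse ldh-a hypoxia-response element, scored as per-plate z-scores; higher means greater loss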
Scale: z-score: higher = stronger loss of HIF reporter signal
The deposit covers about 21,000 reagents; shown is a random part of those that have a named target and a result. 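Primary screen; positive scores mean lost reporter signal, so the sign may be inverted from the usual convention.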 The numbers tell different reagents against one gene apart. Further read-outs or replicates are left out here. Reagent sequences are not shown.

Depletion of Tmem131 resulted in: z-score, replicate 1 = -0.3.
HINT1 scored z-score, replicate 1 = -0.3.
With knock-down of Ero1L, the record shows z-score, replicate 1 = -0.2.
Silencing of CtsL1 #1 came out at: z-score, replicate 1 = -0.3.
CtsL1 #2 showed z-score, replicate 1 = -0.3.
Against wcy the deposit lists z-score, replicate 1 = 0.2.
After knock-down of CCT1, the screen gave z-score, replicate 1 = 2.6.
Nepl6 scored z-score, replicate 1 = -0.4.
For Rab19, the values are z-score, replicate 1 = -0.3.
Silencing of Alp13 came out at: z-score, replicate 1 = -0.4.
CG34022 (retired record) scored z-score, replicate 1 = 0.2.
Depletion of slf resulted in: z-score, replicate 1 = -0.2.
Lim3 #1 gave z-score, replicate 1 = -0.2.
Knock-down of Lim3 #2 gave: z-score, replicate 1 = 0.2.
CG33998 scored z-score, replicate 1 = 0.9.
With knock-down of Hsdl2, the screen gave z-score, replicate 1 = -0.3.
With knock-down of Naam, the screen gave z-score, replicate 1 = -1.1.
Against Mccc1, the entry reads z-score, replicate 1 = -0.2.
After knock-down of SiaT, the record shows z-score, replicate 1 = 0.
Knock-down of fz3 resulted in: z-score, replicate 1 = -0.3.
Depletion of CG14647 came out at: z-score, replicate 1 = -0.3.
krz scored z-score, replicate 1 = -0.4.
Depletion of CG17732 came out at: z-score, replicate 1 = -0.2.
Knock-down of Ance-5 gave: z-score, replicate 1 = -0.4.
Cyp9c1 showed z-score, replicate 1 = -0.2.
For CG43896 the deposit lists z-score, replicate 1 = 0.1.
Hey showed z-score, replicate 1 = 1.2.
With knock-down of CG18788, the screen gave z-score, replicate 1 = -0.4.
Depletion of Uros2 came out at: z-score, replicate 1 = -0.1.
For CG31076, the values are z-score, replicate 1 = -0.3.
Against CG32176 #1, the entry reads z-score, replicate 1 = -0.3.
For CG32176 #2 the deposit lists z-score, replicate 1 = -0.2.
With knock-down of CG13912, the record shows z-score, replicate 1 = -0.2.
CG15263 showed z-score, replicate 1 = -0.2.

A few values from the list.
Entry for CG31076 in “z-score, replicate 1”: -0.3
For “z-score, replicate 1”, CG13912 has -0.2
Result of Lim3 #2 in “z-score, replicate 1”: 0.2
CG34022 (retired record), z-score, replicate 1 = 0.2
Under “z-score, replicate 1”, fz3 has -0.3
Result for Ance-5 in “z-score, replicate 1”: -0.4

The results go on:
Knock-down of Dph2 came out at: z-score, replicate 1 = -0.3.
For Setd3 #1 the deposit lists z-score, replicate 1 = -0.2.
Knock-down of Setd3 #2 gave: z-score, replicate 1 = -0.2.
Depletion of CG43345 resulted in: z-score, replicate 1 = -0.3.
For CG17350, the entry reads z-score, replicate 1 = -0.2.
Depletion of CG17633 gave: z-score, replicate 1 = -0.4.
CG4198 showed z-score, replicate 1 = -0.3.
pes scored z-score, replicate 1 = -0.2.
Against CG10702, the entry reads z-score, replicate 1 = -0.3.
Against CG5895 the deposit lists z-score, replicate 1 = -0.2.
CG44774 scored z-score, replicate 1 = -0.1.
With knock-down of CheB53b the results were z-score, replicate 1 = -0.1.
Or49b showed z-score, replicate 1 = -0.1.
After knock-down of ArgRS-m, the screen gave z-score, replicate 1 = 0.3.
Knock-down of CG13157 came out at: z-score, replicate 1 = -0.2.
With knock-down of CycB3, the screen gave z-score, replicate 1 = -0.2.
Against DppIII the deposit lists z-score, replicate 1 = -0.2.
